The results in this text go back to publication PMC5394241.

For part of these data: Where cells or extracts were used, other partners may take part. For part of these data: Negatives hold for the conditions tested. For part of these data: For at least one entry, the source does not settle the construct or the ends of the probe. For part of these data: Weaker means in comparison with the reference protein, sequence or condition of that experiment. For part of these data: At least one verdict rests on a figure or table, not on a statement of the authors.

Data set [1] deals with POT1 full-length + TPP1PBM (SAXS construct). Description: SAXS of ternary complex. Particulars: recombinant protein; single-stranded DNA.
Data set [2] concerns the target HA-POT1 E572K (Homo sapiens) (UniProt Q9NUX5). Description: pull-down. Particulars: Flag-TPP1 co-expressed; Pull-down: 50 mM Hepes pH 7.3, 150 mM NaCl, 2 mM MgCl2, 5 mM EGTA, 0.5% Triton X-100, 10% glycerol, protease inhibitors, overnight 4 °C; protein in a lysate after overexpression; residues 1-634; protein details: HA; single-stranded DNA.
In data set [3] the target is HA-POT1 F62A (Homo sapiens) (UniProt Q9NUX5). Description: pull-down. Particulars: Flag-TPP1 co-expressed; Pull-down: 50 mM Hepes pH 7.3, 150 mM NaCl, 2 mM MgCl2, 5 mM EGTA, 0.5% Triton X-100, 10% glycerol, protease inhibitors, overnight 4 °C; protein in a lysate after overexpression; residues 1-634; protein details: HA; single-stranded DNA.
Data set [4] concerns the target HA-POT1 A364E (Homo sapiens) (UniProt Q9NUX5). Description: pull-down. Particulars: Flag-TPP1 co-expressed, reduced POT1 input; Pull-down: 50 mM Hepes pH 7.3, 150 mM NaCl, 2 mM MgCl2, 5 mM EGTA, 0.5% Triton X-100, 10% glycerol, protease inhibitors, overnight 4 °C; protein in a lysate after overexpression; residues 1-634; protein details: HA; single-stranded DNA.
In data set [5] the target is HA-POT1 Q623H (Homo sapiens) (UniProt Q9NUX5). Description: pull-down. Particulars: Flag-TPP1 co-expressed; Pull-down: 50 mM Hepes pH 7.3, 150 mM NaCl, 2 mM MgCl2, 5 mM EGTA, 0.5% Triton X-100, 10% glycerol, protease inhibitors, overnight 4 °C; protein in a lysate after overexpression; residues 1-634; protein details: HA; single-stranded DNA.
The target of data set [6] is HA-POT1 M587T (Homo sapiens) (UniProt Q9NUX5). Description: pull-down. Particulars: Flag-TPP1 co-expressed; Pull-down: 50 mM Hepes pH 7.3, 150 mM NaCl, 2 mM MgCl2, 5 mM EGTA, 0.5% Triton X-100, 10% glycerol, protease inhibitors, overnight 4 °C; protein in a lysate after overexpression; residues 1-634; protein details: HA; single-stranded DNA.
The target in data set [7] is HA-POT1 WT (Homo sapiens) (UniProt Q9NUX5). Description: pull-down. Particulars: Pull-down: 50 mM Hepes pH 7.3, 150 mM NaCl, 2 mM MgCl2, 5 mM EGTA, 0.5% Triton X-100, 10% glycerol, protease inhibitors, overnight 4 °C, protein in a lysate after overexpression, residues 1-634, protein details: HA, single-stranded DNA.
Data set [8] addresses HA-POT1 P371T (Homo sapiens) (UniProt Q9NUX5). Description: pull-down. Particulars: Flag-TPP1 co-expressed, reduced POT1 input; Pull-down: 50 mM Hepes pH 7.3, 150 mM NaCl, 2 mM MgCl2, 5 mM EGTA, 0.5% Triton X-100, 10% glycerol, protease inhibitors, overnight 4 °C; protein in a lysate after overexpression; residues 1-634; protein details: HA; single-stranded DNA.

TTAGGGTTAG [T10]: the binding result in data set [1] is given as “binds”.

Turning to “TTAGGGTTAGGGTTAGGGTTAGGGTTAGGGTTAGGG [Tel-G (TTAGGG)6]”, the binding result in data set [2] is “binds”; in data set [3] it was “no binding”; in data set [4] it was “binds”; in data set [5], “binds”; in data set [6] it was “binds”; in data set [7] (Flag-TPP1 co-expressed) it was “binds”. In addition, the binding result in data set [7] (Flag-TPP1ΔRD (del244-337, does not bind POT1) co-expressed instead of WT TPP1, reduced POT1 stability) is given as “binds more weakly”; in data set [8] it was “binds”.
